Experimental data reported in article PMC3431311.
Results are given in words; binding and its absence hold for the method and conditions named. In cells and extracts the contact can be indirect. Some entries that bind do so weakly or less than the wild type.

By UniProt entry, the sequences of proteins in these tests, tags left out.
UniProt P29341: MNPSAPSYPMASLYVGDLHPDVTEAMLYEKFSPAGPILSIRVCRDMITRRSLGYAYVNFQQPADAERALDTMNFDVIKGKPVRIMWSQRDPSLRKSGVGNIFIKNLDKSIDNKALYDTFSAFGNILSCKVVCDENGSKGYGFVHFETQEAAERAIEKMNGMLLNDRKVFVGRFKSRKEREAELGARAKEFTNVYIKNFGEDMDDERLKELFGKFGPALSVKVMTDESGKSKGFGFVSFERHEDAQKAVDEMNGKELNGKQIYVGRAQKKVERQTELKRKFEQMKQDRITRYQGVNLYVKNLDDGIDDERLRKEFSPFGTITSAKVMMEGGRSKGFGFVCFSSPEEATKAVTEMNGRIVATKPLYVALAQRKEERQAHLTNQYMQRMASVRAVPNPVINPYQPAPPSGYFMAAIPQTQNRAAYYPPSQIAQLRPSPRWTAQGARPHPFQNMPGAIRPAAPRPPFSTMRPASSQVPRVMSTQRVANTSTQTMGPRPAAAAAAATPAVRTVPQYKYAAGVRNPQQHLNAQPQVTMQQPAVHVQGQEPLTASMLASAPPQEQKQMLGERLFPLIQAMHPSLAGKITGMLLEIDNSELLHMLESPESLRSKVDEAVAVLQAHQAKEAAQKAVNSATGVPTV

Legend:
[1] = target: Q42-ATXN2 (expanded ATXN2 of the Atxn2-CAG42-knock-in mouse) (mouse (endogenous in cerebellum)) (UniProt O70305); test: co-IP; ATXN2 immunoprecipitated with anti-ATXN2 antibody and Protein A/G-agarose from 200 ug soluble proteins of cerebellum of 6 months old wild-type, CAG42 and ATXN2-knock-out mice (lysis buffer 10 mM HEPES, 10 mM KCl, 5 mM MgCl2, 0.1% Igepal CA-630); PABPC1 detected by immunoblot
[2] = target: T1, wild-type ATXN2 (Ataxin-2), murine (mouse (endogenous in cerebellum)) (UniProt O70305); test: as above
T1 sequence: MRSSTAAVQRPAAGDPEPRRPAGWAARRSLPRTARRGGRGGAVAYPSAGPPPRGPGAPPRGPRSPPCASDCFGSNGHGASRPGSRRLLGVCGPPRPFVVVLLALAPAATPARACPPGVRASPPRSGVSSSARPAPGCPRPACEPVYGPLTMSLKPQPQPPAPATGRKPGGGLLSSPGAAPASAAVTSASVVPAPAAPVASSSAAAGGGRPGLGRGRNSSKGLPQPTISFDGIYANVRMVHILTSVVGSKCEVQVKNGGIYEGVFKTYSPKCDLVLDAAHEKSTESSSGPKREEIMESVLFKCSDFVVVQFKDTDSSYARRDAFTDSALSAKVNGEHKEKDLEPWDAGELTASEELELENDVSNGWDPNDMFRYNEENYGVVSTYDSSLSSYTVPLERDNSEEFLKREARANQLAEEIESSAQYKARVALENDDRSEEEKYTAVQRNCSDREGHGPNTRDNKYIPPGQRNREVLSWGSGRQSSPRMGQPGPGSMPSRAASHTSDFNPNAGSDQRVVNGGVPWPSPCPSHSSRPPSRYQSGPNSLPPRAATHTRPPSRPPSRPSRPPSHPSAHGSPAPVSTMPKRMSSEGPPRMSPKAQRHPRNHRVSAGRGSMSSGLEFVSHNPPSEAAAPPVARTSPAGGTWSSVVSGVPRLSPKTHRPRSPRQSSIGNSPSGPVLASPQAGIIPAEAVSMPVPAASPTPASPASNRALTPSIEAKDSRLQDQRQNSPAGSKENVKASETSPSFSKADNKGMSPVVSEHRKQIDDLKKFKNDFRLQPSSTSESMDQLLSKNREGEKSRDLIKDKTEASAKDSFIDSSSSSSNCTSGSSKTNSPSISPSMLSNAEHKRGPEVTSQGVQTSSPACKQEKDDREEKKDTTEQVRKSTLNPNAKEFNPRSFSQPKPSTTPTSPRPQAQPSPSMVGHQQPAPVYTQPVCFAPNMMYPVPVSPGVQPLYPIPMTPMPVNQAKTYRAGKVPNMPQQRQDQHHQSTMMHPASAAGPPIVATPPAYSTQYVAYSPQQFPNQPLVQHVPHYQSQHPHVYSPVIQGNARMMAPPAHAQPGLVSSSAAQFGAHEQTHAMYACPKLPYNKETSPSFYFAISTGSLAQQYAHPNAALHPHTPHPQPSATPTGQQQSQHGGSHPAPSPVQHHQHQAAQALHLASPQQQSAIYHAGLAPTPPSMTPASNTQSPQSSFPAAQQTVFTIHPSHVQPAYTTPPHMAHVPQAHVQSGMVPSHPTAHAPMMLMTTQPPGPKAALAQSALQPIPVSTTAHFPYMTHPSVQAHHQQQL

poly(A)-binding protein PABPC1, murine (from UniProt P29341 1-636)
binding [1]: binds
binding [2]: binds
